Test results from article doi:10.1101/157743.
Results are given in words; binding and its absence hold for the method and conditions named. In cells and extracts the contact can be indirect. Where a sequence is shown, tags or fusion partners need not be part of it.

Target: tandem Myc epitope fusion of PGM2 (Myc2-PGM2) (Toxoplasma gondii)
Assay: co-IP

B1: parafusin related protein 1 (PRP1) (protein, UniProt Q95WU0 1-637)
chain: MGAKASRMRTKEEACRGSANPSHKGLPADQILSRPTTAYQDQKPGTSGLRKKTKVFMQKDYLANFAQSVFNCLPEEEKKGGTLLVSGDGRFFSHEAIYEICSIAAGNGVGRVWIGLNGLASTPACSAIIRERENGICFGGFLLTASHNPGGIDEDFGVKYDTANGAPGYEALMNEVWEKSKTISTIKYAKLPKFSIDKLGVQVNIDGAFQVEVIDPIEDWLKLMKEAFHFPAIKRLLALPHFSFVYDSMHGVSGPYAEKLFIEEFGAKRECLMRQDPLPDFGGHHPDPNLTYAEELVAKMKVLHPDQVDASTPLFGAAGDGDCDRNMILGRGFFVTPSDSVALIALYAEKCIPYFFVDKATGKGGLTGLARSMPTSRALDNVAKKLNKDVYETPTGWKYFTNLMDASRISICGEESFGTGSVHVREKDGLWAVLAWLSILAYRNGCMGDVEKERELLQEGKSVDVSPPATKETDFVSVQQIVEEFWKEYGRNFYCRYDFENKDSASAHEMLQALEELSKSSPAEITGKVASHVDENLLKEMEIDSMDWFKYTDPVDKQVSDHQGVRLFLKGGSRIIWRLSGTGSTGATIRVYMERYEPDASKVLQDERTALKDIAAFALQFCDMKKYIGTETPTVIT
binding: no binding
